Source: PMC10148843

Chains of the proteins cited; added tags and fusions are not shown. Lines headed by an entry give the natural chain unless they say otherwise; changes in a name come on top.
UniProt Q6R327: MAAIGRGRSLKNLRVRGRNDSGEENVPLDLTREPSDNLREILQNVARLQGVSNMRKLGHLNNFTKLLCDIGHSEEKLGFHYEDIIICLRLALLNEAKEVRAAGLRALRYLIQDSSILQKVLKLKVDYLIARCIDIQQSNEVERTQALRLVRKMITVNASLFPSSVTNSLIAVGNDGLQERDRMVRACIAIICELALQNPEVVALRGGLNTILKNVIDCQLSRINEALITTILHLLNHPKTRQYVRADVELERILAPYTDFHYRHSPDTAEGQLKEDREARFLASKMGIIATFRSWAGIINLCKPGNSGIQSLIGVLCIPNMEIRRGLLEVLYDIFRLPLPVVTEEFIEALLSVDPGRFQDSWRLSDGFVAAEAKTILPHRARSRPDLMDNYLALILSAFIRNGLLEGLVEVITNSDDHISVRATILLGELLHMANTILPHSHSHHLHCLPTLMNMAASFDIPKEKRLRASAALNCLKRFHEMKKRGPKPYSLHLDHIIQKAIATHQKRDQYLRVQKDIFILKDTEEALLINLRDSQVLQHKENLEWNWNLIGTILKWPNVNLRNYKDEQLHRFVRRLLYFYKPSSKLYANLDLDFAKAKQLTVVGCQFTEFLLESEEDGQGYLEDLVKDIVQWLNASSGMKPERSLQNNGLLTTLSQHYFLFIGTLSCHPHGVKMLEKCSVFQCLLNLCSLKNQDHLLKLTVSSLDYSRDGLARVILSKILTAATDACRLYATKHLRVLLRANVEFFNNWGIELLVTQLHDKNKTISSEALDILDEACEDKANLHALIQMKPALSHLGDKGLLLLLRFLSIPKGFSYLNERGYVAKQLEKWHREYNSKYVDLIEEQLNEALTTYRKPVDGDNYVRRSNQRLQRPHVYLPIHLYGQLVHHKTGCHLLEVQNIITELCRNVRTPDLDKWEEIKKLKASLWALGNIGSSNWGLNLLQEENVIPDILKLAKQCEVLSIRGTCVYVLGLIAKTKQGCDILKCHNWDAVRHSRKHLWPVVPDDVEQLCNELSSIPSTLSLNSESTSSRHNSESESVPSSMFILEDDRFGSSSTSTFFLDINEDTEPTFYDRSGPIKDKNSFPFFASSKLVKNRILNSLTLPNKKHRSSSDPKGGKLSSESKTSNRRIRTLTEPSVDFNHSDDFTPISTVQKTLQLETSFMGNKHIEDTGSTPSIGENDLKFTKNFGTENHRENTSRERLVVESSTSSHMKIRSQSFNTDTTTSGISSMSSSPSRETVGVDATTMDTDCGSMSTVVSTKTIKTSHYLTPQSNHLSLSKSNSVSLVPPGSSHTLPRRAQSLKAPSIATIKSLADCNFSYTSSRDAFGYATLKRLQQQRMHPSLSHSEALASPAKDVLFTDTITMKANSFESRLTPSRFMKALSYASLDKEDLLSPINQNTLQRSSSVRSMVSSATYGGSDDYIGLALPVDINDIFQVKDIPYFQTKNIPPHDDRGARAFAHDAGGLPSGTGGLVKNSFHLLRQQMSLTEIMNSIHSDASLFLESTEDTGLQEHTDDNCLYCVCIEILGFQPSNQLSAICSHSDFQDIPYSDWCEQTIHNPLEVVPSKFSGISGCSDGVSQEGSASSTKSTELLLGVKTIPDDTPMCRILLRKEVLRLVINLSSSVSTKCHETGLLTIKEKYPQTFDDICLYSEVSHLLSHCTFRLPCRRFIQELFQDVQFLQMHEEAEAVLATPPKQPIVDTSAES
UniProt P06396: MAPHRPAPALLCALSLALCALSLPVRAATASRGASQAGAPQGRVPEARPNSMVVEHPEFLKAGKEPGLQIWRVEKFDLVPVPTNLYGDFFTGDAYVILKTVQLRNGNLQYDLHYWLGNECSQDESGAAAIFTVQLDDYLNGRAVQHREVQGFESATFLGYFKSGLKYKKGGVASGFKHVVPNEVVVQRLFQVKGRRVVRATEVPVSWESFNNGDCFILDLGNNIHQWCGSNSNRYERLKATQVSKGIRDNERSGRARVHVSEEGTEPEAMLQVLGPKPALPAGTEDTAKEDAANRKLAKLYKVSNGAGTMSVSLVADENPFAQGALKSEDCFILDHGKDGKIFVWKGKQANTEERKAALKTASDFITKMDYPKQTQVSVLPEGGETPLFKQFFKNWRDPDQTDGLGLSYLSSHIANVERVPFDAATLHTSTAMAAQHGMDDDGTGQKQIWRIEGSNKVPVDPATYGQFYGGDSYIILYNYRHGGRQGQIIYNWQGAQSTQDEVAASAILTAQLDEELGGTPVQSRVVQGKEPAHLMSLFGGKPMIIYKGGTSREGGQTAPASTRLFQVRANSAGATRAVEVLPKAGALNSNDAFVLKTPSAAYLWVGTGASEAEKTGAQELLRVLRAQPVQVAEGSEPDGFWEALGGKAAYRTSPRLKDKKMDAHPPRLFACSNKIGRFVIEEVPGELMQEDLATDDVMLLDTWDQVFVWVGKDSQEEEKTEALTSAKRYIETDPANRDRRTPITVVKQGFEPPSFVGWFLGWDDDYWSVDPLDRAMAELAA

Experiments:
[1] = biological target: RICTOR (human (endogenous in U87MG, DBTRG-05MG, H4, SW1088)) (UniProt Q6R327); assay: co-IP; RICTOR IP from lysates of the high-grade lines U87MG and DBTRG-05MG, western blot
[2] = biological target: RICTOR (human (endogenous in U87MG, DBTRG-05MG, H4, SW1088)) (UniProt Q6R327); assay: co-IP; anti-RICTOR IP from U87MG lysates, western blot; control against siRICTOR; normal, serum activation, AZD8055 and JR-AB2-011 treatment

binding [1]: binds | binding [2]: binds
Substance: gelsolin (GSN) (from UniProt P06396)

Results are given in words; binding and its absence hold for the method and conditions named. Binding seen in cells or lysates may run through a third protein. Binding calls can cover weak binding; strength is not graded here.
